Source: the supplement of paper PMC10849652
The list shows a part of the results.

Chains of the proteins cited; added tags and fusions are not shown. Lines headed by an entry give the natural chain unless they say otherwise; changes in a name come on top.
UniProt Q9NYF8, whole entry, looked up: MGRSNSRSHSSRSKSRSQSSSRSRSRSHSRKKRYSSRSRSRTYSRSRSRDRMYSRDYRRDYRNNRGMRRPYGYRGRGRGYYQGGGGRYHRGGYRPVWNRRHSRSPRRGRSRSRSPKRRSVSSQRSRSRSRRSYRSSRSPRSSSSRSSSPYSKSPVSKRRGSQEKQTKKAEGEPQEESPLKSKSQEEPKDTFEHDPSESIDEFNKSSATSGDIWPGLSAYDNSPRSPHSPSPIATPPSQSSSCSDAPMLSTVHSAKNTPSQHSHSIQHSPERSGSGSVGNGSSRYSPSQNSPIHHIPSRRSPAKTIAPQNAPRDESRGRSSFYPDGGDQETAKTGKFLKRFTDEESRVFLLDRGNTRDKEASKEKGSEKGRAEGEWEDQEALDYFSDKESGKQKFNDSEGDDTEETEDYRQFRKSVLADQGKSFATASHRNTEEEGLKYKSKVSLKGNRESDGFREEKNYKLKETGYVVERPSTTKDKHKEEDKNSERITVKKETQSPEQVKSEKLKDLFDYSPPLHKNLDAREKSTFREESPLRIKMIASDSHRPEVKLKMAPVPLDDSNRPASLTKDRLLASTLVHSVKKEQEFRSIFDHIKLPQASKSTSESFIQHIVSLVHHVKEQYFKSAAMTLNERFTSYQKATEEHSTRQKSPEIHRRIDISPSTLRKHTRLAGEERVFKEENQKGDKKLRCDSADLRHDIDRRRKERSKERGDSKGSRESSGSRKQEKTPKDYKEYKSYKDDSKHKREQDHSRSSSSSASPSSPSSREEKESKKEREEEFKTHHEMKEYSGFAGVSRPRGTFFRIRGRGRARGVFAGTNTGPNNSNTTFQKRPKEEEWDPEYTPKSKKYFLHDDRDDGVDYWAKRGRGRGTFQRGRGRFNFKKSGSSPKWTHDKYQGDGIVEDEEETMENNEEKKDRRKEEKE
UniProt Q8TDH9: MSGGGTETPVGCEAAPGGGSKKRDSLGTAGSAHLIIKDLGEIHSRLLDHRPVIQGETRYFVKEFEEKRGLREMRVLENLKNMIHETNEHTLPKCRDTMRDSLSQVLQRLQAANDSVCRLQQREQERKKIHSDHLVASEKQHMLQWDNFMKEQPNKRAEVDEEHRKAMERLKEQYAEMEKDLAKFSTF
UniProt O15392, whole entry, looked up: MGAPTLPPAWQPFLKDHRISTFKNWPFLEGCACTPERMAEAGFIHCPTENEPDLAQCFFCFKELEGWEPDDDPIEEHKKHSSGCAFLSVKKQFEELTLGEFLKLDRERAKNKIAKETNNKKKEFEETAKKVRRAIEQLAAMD
UniProt Q8TDN6: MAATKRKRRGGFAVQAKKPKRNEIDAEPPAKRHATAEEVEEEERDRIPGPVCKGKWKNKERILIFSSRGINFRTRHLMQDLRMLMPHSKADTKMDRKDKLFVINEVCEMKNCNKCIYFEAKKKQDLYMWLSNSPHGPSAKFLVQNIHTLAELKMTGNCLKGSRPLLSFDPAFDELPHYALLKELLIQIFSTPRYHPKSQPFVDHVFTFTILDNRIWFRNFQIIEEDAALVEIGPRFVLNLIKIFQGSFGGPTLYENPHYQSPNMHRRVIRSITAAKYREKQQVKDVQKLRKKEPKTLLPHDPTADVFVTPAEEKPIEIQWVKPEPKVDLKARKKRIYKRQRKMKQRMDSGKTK
UniProt O14981: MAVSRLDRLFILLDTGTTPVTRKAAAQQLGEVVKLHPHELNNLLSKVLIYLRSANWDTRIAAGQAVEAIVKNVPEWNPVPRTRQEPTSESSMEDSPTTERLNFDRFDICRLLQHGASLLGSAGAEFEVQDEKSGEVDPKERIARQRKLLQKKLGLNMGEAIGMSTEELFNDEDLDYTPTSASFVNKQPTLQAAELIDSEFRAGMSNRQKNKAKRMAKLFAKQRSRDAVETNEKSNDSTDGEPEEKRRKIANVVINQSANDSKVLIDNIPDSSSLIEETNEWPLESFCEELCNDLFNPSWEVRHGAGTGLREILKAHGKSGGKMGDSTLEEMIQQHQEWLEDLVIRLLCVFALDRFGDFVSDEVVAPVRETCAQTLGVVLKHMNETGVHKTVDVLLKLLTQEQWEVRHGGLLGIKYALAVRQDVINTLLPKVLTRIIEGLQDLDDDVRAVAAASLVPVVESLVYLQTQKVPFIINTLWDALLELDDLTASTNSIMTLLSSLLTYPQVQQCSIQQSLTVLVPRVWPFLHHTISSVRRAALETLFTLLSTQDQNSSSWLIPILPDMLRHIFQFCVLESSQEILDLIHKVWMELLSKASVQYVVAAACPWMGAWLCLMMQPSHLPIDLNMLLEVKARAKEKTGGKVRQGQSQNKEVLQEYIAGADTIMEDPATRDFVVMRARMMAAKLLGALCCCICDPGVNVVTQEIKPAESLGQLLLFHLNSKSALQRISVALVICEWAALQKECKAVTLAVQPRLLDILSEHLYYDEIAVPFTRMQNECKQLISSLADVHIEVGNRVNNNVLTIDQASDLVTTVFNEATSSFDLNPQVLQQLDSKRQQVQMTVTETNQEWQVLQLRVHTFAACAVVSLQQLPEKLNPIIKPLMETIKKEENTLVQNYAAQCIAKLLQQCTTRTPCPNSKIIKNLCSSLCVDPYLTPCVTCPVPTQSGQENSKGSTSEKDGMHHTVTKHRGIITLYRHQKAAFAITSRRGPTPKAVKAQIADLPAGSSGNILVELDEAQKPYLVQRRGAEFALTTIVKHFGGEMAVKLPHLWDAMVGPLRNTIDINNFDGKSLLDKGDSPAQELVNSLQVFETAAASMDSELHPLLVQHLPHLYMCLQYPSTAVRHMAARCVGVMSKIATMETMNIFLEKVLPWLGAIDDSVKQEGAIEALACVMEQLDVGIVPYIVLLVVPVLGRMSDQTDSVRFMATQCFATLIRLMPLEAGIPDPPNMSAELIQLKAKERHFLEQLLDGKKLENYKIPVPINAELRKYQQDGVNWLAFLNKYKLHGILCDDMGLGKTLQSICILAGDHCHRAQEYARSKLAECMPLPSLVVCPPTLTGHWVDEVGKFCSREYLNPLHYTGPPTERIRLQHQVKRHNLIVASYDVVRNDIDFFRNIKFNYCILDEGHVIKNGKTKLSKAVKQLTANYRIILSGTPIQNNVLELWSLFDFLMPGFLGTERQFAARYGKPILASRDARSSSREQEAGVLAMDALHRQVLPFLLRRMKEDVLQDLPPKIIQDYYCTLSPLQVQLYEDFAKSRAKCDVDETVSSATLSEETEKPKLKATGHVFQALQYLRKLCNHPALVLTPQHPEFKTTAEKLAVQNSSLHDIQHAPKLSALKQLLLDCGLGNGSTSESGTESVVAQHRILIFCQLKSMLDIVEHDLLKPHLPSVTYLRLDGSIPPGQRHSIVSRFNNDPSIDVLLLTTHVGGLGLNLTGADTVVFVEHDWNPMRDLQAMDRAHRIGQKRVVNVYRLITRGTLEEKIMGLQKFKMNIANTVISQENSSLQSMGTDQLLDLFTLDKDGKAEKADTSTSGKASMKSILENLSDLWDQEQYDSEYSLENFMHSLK
UniProt Q96GS4: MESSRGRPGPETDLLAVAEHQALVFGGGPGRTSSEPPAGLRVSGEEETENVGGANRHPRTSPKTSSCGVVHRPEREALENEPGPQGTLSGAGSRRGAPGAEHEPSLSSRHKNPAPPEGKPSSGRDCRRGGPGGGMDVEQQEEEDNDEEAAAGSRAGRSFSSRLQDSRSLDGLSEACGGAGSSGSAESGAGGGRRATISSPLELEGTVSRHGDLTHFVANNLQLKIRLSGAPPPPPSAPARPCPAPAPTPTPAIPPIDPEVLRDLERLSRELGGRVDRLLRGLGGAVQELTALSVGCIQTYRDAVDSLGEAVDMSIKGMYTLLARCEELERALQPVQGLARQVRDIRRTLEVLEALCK
UniProt Q9NW68: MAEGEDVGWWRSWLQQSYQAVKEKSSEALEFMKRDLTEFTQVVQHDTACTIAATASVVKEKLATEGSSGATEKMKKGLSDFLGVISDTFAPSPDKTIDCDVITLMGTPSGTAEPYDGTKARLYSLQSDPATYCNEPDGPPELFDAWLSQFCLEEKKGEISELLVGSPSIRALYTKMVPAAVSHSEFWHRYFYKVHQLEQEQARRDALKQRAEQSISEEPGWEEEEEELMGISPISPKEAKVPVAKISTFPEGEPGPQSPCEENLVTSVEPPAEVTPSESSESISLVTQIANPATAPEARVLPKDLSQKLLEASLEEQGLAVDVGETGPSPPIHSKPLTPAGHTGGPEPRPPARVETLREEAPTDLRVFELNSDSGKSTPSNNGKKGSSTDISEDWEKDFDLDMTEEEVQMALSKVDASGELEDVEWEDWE
UniProt O75934: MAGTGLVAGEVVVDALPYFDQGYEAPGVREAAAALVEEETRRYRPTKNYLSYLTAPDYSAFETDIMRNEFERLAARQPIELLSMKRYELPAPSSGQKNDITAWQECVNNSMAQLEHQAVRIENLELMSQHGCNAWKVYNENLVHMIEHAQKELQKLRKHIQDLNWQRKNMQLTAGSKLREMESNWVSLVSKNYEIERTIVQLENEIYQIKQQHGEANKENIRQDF
UniProt Q6PJG6: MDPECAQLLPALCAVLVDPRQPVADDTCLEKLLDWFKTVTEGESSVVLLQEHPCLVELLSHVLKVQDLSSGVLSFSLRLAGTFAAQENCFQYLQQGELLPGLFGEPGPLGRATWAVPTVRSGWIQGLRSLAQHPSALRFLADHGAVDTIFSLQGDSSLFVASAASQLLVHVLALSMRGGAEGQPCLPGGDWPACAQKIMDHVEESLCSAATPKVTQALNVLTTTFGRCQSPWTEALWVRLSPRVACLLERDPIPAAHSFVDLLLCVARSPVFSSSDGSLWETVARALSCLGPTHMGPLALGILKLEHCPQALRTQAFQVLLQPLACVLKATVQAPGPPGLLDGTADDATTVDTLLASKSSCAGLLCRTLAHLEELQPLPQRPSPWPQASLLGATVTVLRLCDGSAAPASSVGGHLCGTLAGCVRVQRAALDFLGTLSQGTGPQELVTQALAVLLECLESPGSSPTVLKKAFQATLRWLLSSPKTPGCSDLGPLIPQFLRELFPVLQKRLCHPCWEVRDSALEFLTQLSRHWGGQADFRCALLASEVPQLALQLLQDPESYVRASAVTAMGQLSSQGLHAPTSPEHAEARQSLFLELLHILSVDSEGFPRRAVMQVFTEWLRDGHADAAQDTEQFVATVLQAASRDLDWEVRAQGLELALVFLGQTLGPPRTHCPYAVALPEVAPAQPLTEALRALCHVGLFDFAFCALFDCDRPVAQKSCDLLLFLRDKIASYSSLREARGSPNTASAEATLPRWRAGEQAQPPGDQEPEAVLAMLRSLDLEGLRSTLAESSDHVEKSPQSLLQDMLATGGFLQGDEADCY
UniProt Q8TD16, whole entry, looked up: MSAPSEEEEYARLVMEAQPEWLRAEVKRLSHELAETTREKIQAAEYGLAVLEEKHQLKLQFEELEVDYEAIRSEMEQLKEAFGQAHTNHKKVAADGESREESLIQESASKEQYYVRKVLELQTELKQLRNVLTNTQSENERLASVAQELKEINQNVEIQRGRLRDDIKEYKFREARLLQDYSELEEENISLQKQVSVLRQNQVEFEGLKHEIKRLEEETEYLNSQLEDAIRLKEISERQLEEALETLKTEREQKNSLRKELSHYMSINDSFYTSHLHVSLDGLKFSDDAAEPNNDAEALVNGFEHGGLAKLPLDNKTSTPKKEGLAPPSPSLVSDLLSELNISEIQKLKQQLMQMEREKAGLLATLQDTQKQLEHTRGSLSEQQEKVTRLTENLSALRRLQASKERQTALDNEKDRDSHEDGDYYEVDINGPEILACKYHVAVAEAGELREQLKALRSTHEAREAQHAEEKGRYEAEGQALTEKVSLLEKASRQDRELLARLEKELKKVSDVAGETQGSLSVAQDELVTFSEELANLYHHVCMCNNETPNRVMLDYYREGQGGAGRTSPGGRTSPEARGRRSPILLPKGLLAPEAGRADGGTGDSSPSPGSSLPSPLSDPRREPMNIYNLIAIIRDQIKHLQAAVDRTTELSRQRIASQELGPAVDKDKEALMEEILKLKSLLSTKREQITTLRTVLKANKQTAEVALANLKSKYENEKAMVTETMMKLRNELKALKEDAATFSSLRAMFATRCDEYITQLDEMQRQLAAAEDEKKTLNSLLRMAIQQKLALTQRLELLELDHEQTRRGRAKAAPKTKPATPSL
UniProt P35613: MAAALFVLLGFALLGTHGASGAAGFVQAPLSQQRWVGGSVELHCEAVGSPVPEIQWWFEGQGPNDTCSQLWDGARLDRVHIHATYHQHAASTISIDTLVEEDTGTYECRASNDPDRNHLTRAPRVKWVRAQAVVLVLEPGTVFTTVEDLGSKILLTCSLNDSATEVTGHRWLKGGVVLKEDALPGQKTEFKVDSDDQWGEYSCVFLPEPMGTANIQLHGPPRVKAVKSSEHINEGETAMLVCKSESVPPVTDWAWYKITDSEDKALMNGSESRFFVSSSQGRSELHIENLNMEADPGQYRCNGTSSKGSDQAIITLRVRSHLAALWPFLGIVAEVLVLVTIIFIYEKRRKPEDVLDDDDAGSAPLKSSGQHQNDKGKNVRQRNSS
UniProt Q9H3K6: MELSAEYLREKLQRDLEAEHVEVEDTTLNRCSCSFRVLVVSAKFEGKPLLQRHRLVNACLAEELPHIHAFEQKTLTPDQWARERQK

Assays:
Test in all cases: log2 fold change, soluble protein after heating vs DMSO (PISA); higher = thermal stabilisation; K562 lysate, 10 uM; active = over 0.2 and 3.5 SD of the protein, either way, in both replicates (recomputed)
lapatinib = compound: CS(=O)(=O)CCNCc1ccc(-c2ccc3ncnc(Nc4ccc(OCc5cccc(F)c5)c(Cl)c4)c3c2)o1 [lapatinib]
In short: (§1)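 Log-two fold change in thermal stability relative to solvent controls is reported from duplicates. For each sample, crude K562 extract from dounce-homogenised pellets in PBS pH 7.4 with 1 mM MgCl2, at 1 mg/mL protein, was treated with 10 μM compound for 30 min. Aliquots heated for 3 min across 48°C-58°C were pooled, brought to 0.5% NP-40 at 4°C and cleared at 21,000xg for 90 min. The supernatant was quantified by TMTpro 16plex LC-MS/MS with channel sums equalised.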

pictilisib = compound: CS(=O)(=O)N1CCN(Cc2cc3nc(-c4cccc5[nH]ncc45)nc(N4CCOCC4)c3s2)CC1 [pictilisib]
In short: as §1

crizotinib = compound: C[C@@H](Oc1cc(-c2cnn(C3CCNCC3)c2)cnc1N)c1c(Cl)ccc(F)c1Cl [crizotinib]
In short: as §1

[1] = compound: C[C@H](C1=CC=C(C=C1)C(=O)NC2=C3C=CNC3=NC=C2)N
In short: as §1

duvelisib = compound: C[C@H](Nc1ncnc2nc[nH]c12)c1cc2cccc(Cl)c2c(=O)n1-c1ccccc1 [duvelisib]
In short: as §1

gandotinib = compound: Cc1cc(Nc2cc(CN3CCOCC3)c3nc(C)c(Cc4ccc(Cl)cc4F)n3n2)n[nH]1 [gandotinib]
In short: as §1

tozasertib = compound: Cc1cc(Nc2cc(N3CCN(C)CC3)nc(Sc3ccc(NC(=O)C4CC4)cc3)n2)n[nH]1 [tozasertib]
In short: as §1

doramapimod = compound: Cc1ccc(-n2nc(C(C)(C)C)cc2NC(=O)Nc2ccc(OCCN3CCOCC3)c3ccccc23)cc1 [doramapimod]
In short: as §1

bafetinib = compound: Cc1ccc(NC(=O)c2ccc(CN3CC[C@H](N(C)C)C3)c(C(F)(F)F)c2)cc1Nc1nccc(-c2cncnc2)n1 [bafetinib]
In short: as §1

[2] = compound: Cc1cccc(CC(=O)N2CCc3c2ccc(-c2cn(C)c4ncnc(N)c24)c3F)n1
In short: as §1

nilotinib = compound: Cc1cn(-c2cc(NC(=O)c3ccc(C)c(Nc4nccc(-c5cccnc5)n4)c3)cc(C(F)(F)F)c2)cn1 [nilotinib]
In short: as §1

[3] = compound: Cc1nc(Nc2n[nH]c3c2CN(C(=O)N[C@H](CN(C)C)c2ccccc2)C3(C)C)c2sccc2n1
In short: as §1

dasatinib = compound: Cc1nc(Nc2ncc(C(=O)Nc3c(C)cccc3Cl)s2)cc(N2CCN(CCO)CC2)n1 [dasatinib]
In short: as §1

[4] = compound: Cc1ncc(-c2ccnc(Nc3ccc(S(C)(=O)=O)cc3)n2)n1C(C)C
In short: as §1

[5] = compound: Cn1cc(-c2ccc3c(c2)CCN3C(=O)Cc2cccc(C(F)(F)F)c2)c2c(N)ncnc21
In short: as §1

quisinostat = compound: Cn1cc(CNCC2CCN(c3ncc(C(=O)NO)cn3)CC2)c2ccccc21 [quisinostat]
In short: as §1

tipifarnib = compound: Cn1cncc1[C@@](N)(c1ccc(Cl)cc1)c1ccc2c(c1)c(-c1cccc(Cl)c1)cc(=O)n2C [tipifarnib]
In short: as §1

[6] = compound: NC(=O)Nc1cc(-c2cccc(F)c2)sc1C(=O)N[C@H]1CCCNC1
In short: as §1

[7] = compound: NC(=O)c1cnc(N[C@@H]2CCCC[C@@H]2N)nc1Nc1cccc(-n2nccn2)c1
In short: as §1

[8] = compound: NC1(c2ccc(-c3nc4ccn5c(=O)[nH]nc5c4cc3-c3ccccc3)cc2)CCC1
In short: as §1

Measured: log2 fold change

BRD3 (UniProt Q15059)
active: [1] -0.333
inactive: lapatinib 0.014 | pictilisib 0.004 | crizotinib -0.022 | duvelisib 0.1 | gandotinib 0.147 | tozasertib 0.048 | doramapimod -0.074 | bafetinib -0.016 | [2] 0.154 | nilotinib -0.069 | [3] 0.074 | dasatinib -0.011 | [4] 0.025 | [5] -0.018 | quisinostat 0.013 | tipifarnib 0.013 | [6] 0.066 | [7] -0.024 | [8] -0.185

BCLAF1 (UniProt Q9NYF8)
inactive: lapatinib -0.001 | pictilisib 0.036 | crizotinib 0.009 | [1] 0.088 | duvelisib -0.011 | gandotinib -0.024 | tozasertib -0.12 | doramapimod -0.032 | bafetinib -0.014 | [2] 0.012 | nilotinib 0.012 | [3] 0.07 | dasatinib 0.019 | [4] -0.01 | [5] 0.053 | quisinostat 0.103 | tipifarnib -0.005 | [6] -0.042 | [7] -0.011 | [8] -0.051

BLOC1S5 (UniProt Q8TDH9)
inactive: lapatinib -0.025 | pictilisib -0.047 | crizotinib 0.038 | [1] -0.024 | duvelisib -0.039 | gandotinib 0.036 | tozasertib -0.034 | doramapimod -0.01 | bafetinib -0.041 | [2] -0.036 | nilotinib 0.033 | [3] -0.019 | dasatinib -0.001 | [4] -0.003 | [5] -0.005 | quisinostat 0.003 | tipifarnib 0.036 | [6] -0.017 | [7] -0.002 | [8] 0.015

Quoted from the results shown (two entries):
BRD3 (UniProt Q15059)
active: [1] -0.333
inactive: lapatinib 0.014 | pictilisib 0.004 | crizotinib -0.022 | duvelisib 0.1 | gandotinib 0.147 | tozasertib 0.048 | doramapimod -0.074 | bafetinib -0.016 | [2] 0.154 | nilotinib -0.069 | [3] 0.074 | dasatinib -0.011 | [4] 0.025 | [5] -0.018 | quisinostat 0.013 | tipifarnib 0.013 | [6] 0.066 | [7] -0.024 | [8] -0.185

BCLAF1 (UniProt Q9NYF8)
inactive: lapatinib -0.001 | pictilisib 0.036 | crizotinib 0.009 | [1] 0.088 | duvelisib -0.011 | gandotinib -0.024 | tozasertib -0.12 | doramapimod -0.032 | bafetinib -0.014 | [2] 0.012 | nilotinib 0.012 | [3] 0.07 | dasatinib 0.019 | [4] -0.01 | [5] 0.053 | quisinostat 0.103 | tipifarnib -0.005 | [6] -0.042 | [7] -0.011 | [8] -0.051

Going on with the list:

BCL7C isoform 2 (UniProt Q8WUZ0)
inactive: lapatinib -0.06 | pictilisib 0.017 | crizotinib 0.104 | [1] -0.208 | duvelisib -0.03 | gandotinib 0.081 | tozasertib 0.02 | doramapimod -0.024 | bafetinib -0.209 | [2] 0.075 | nilotinib 0 | [3] -0.119 | dasatinib -0.01 | [4] -0.091 | [5] 0.076 | quisinostat 0.083 | tipifarnib 0.008 | [6] 0.017 | [7] -0.012 | [8] 0.059

BMS1 (UniProt Q14692)
inactive: lapatinib -0.029 | pictilisib -0.052 | crizotinib -0.058 | [1] -0.018 | duvelisib -0.036 | gandotinib 0.043 | tozasertib 0.018 | doramapimod 0.047 | bafetinib -0.032 | [2] 0.045 | nilotinib 0.024 | [3] 0.024 | dasatinib -0.02 | [4] -0.045 | [5] -0.01 | quisinostat -0.097 | tipifarnib 0 | [6] 0.006 | [7] 0.015 | [8] -0.019

BIRC5 (UniProt O15392)
inactive: lapatinib -0.026 | pictilisib 0.242 | crizotinib 0.047 | [1] -0.007 | duvelisib 0.106 | gandotinib 0.012 | tozasertib 0.151 | doramapimod -0.065 | bafetinib -0.226 | [2] -0.01 | nilotinib -0.035 | [3] 0.058 | dasatinib -0.048 | [4] 0.065 | [5] -0.049 | quisinostat 0.073 | tipifarnib -0.015 | [6] -0.041 | [7] -0.013 | [8] 0

BRIX1 (UniProt Q8TDN6)
inactive: lapatinib -0.017 | pictilisib -0.01 | crizotinib -0.002 | [1] 0.007 | duvelisib 0.001 | gandotinib 0.01 | tozasertib -0.031 | doramapimod -0.037 | bafetinib -0.022 | [2] 0.001 | nilotinib 0.009 | [3] 0.002 | dasatinib -0.017 | [4] 0 | [5] -0.005 | quisinostat 0.032 | tipifarnib -0.001 | [6] -0.003 | [7] -0.007 | [8] 0.003

BTAF1 (UniProt O14981)
inactive: lapatinib 0.015 | pictilisib -0.043 | crizotinib -0.041 | [1] -0.137 | duvelisib 0.011 | gandotinib -0.004 | tozasertib 0 | doramapimod 0.046 | bafetinib -0.056 | [2] 0.093 | nilotinib -0.005 | [3] 0.018 | dasatinib -0.028 | [4] 0.007 | [5] 0.008 | quisinostat -0.015 | tipifarnib -0.011 | [6] 0.033 | [7] 0.016 | [8] 0.004

BORCS6 (UniProt Q96GS4)
inactive: lapatinib 0.014 | pictilisib 0.043 | crizotinib 0.008 | [1] -0.037 | duvelisib 0.096 | gandotinib -0.011 | tozasertib 0.075 | doramapimod -0.012 | bafetinib -0.076 | [2] 0.012 | nilotinib -0.004 | [3] 0.041 | dasatinib -0.01 | [4] -0.039 | [5] 0.007 | quisinostat -0.058 | tipifarnib -0.023 | [6] 0.027 | [7] -0.017 | [8] 0.015

BSDC1 (UniProt Q9NW68)
active: gandotinib 0.312
inactive: lapatinib 0.088 | pictilisib -0.055 | crizotinib 0.012 | [1] -0.052 | duvelisib 0.016 | tozasertib -0.005 | doramapimod 0.098 | bafetinib -0.012 | [2] 0.019 | nilotinib 0.016 | [3] -0.009 | dasatinib 0.018 | [4] 0.027 | [5] -0.018 | quisinostat -0.024 | tipifarnib -0.093 | [6] 0.003 | [7] -0.023 | [8] 0.016

BCAS2 (UniProt O75934)
inactive: lapatinib 0.003 | pictilisib -0.017 | crizotinib 0.004 | [1] 0.017 | duvelisib -0.005 | gandotinib -0.014 | tozasertib -0.018 | doramapimod 0.053 | bafetinib -0.055 | [2] 0.001 | nilotinib 0.073 | [3] -0.06 | dasatinib -0.002 | [4] 0.026 | [5] 0.037 | quisinostat -0.021 | tipifarnib -0.03 | [6] 0.009 | [7] -0.011 | [8] -0.008

BRAT1 (UniProt Q6PJG6)
inactive: lapatinib 0.026 | pictilisib -0.013 | crizotinib -0.103 | [1] 0 | duvelisib -0.001 | gandotinib -0.1 | tozasertib 0.017 | doramapimod 0.052 | bafetinib -0.014 | [2] 0.038 | nilotinib 0.031 | [3] -0.016 | dasatinib -0.046 | [4] 0.01 | [5] 0.046 | quisinostat -0.07 | tipifarnib 0 | [6] 0.008 | [7] 0.047 | [8] -0.017

BICD2 isoform 2 (UniProt Q8TD16)
inactive: lapatinib -0.012 | pictilisib -0.031 | crizotinib 0.025 | [1] -0.015 | duvelisib 0.036 | gandotinib 0.011 | tozasertib 0.038 | doramapimod 0.006 | bafetinib 0.007 | [2] 0.001 | nilotinib 0 | [3] 0 | dasatinib 0.016 | [4] 0.002 | [5] 0.025 | quisinostat -0.012 | tipifarnib 0.004 | [6] -0.024 | [7] 0.004 | [8] 0.007

BCL2L1 (UniProt Q07817)
inactive: lapatinib -0.034 | pictilisib -0.021 | crizotinib 0.047 | [1] -0.072 | duvelisib -0.005 | gandotinib 0.06 | tozasertib 0.003 | doramapimod 0.038 | bafetinib -0.02 | [2] 0.038 | nilotinib 0.013 | [3] 0.017 | dasatinib -0.003 | [4] 0.028 | [5] 0.01 | quisinostat 0.028 | tipifarnib 0.006 | [6] -0.053 | [7] 0.022 | [8] 0.023

BSG (UniProt P35613)
inactive: lapatinib -0.002 | pictilisib 0.014 | crizotinib 0.028 | [1] 0.016 | duvelisib 0.044 | gandotinib -0.049 | tozasertib 0.028 | doramapimod 0.037 | bafetinib 0.061 | [2] -0.12 | nilotinib -0.036 | [3] 0.045 | dasatinib 0.043 | [4] -0.009 | [5] 0.007 | quisinostat 0.003 | tipifarnib 0.042 | [6] -0.027 | [7] -0.025 | [8] -0.027

BOLA2 (UniProt Q9H3K6)
inactive: lapatinib -0.038 | pictilisib -0.035 | crizotinib 0.02 | duvelisib 0.03 | gandotinib -0.088 | tozasertib 0.069 | doramapimod 0.033 | bafetinib 0.094 | [2] -0.064 | nilotinib 0.039 | [3] -0.036 | dasatinib -0.002 | [4] -0.021 | [5] 0.009 | quisinostat 0.063 | tipifarnib 0.01 | [6] -0.042 | [7] -0.013 | [8] 0.096
active: [1] 0.46
